Whole data set: some 33,000 sequences, median “E-score (-0.5 to 0.5)” near -0.0034, cut for the highest 2% near 0.25. This is one part of the list.
target: T1, Yap3 (UniProt P38749); assay: PBM E-score (8-mer binding enrichment) (E-score (-0.5 to 0.5)); higher = stronger / more preferred TF binding; conditions: protein concentration: 100 nM; construct: GST-full length
T1 sequence: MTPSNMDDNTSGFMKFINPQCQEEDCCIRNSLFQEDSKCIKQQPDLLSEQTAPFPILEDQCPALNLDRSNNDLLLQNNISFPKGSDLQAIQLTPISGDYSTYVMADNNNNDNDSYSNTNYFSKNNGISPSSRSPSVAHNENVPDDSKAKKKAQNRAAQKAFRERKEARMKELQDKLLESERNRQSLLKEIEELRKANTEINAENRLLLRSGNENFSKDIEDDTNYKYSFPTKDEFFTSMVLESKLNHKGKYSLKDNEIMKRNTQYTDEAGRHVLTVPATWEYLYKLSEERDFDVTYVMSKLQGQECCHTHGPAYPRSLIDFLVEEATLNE
Summary of the method: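 PURExpress in vitro transcription/translation supplied GST-tagged yeast transcription factors, either full-length or DNA-binding domain. Applied at about 100-200 nM to universal all-10-mer Agilent arrays double-stranded by primer extension, the bound protein was detected with fluorescent anti-GST. E-scores, modified Wilcoxon-Mann-Whitney statistics, were given by the Universal PBM Analysis Suite to ungapped eight-base words pooled with their reverse complements after masliner normalisation.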

Sequence	PBM E-score
CCATTTAA	0.0936
ATCCTTGG	0.0236
AGAAAAAA	0.133
GCCCGCGA	-0.101
AGCGGTAG	-0.116
CAGGGGGC	-0.307
GACGATGA	-0.0458
CCGCGTTC	0.00571
GTCCTGGA	-0.13
ACCTGTAT	-0.0287
AAAATCGG	0.0216
CGCGATGC	-0.227
TGTGTCAA	0.094
CAGGACGC	-0.23
CAAATATA	0.0799
CTTCTCCA	-0.0794
AGTTCCCA	0.0628
ACAGGTGA	0.0927
AGGGTCCG	-0.262
CATATCGG	0.00508
GTTTGAGA	-0.0917
CAGTACCG	-0.0765
TAAGCAAA	0.0998
GCAACGGA	0.118
ACTGGCCG	-0.273

Sequence	PBM E-score
AGGATGTA	0.0873
GAAAAATC	0.127
CTGTCTAC	0.03
GACGTTTA	-0.0849
AACTCACC	-0.0151
ACAATCTC	-0.0263
ATAGAAGC	0.104
CGTAGAAC	-0.195
GGCCCCCA	-0.482
CTACTAGC	0.097
ACGACCCC	-0.109
AACGGCAT	0.249
ACAACAGT	0.0285
CAGATGAC	-0.0623
GGGGGGTA	-0.393
AACAATTG	-0.0238
GACTTACC	-0.11
CTCAGCGC	-0.114
ACTCAAAC	0.0791
ATGAAGCC	0.0364
ACTGAGTC	-0.0122
GTGATATA	0.0989
CACCTAGC	-0.196
ATCTCCGA	0.0977
TCTTCACA	0.128

39 consecutive entries already listed, quoted:
Sequence	PBM E-score
CGCGATGC	-0.227
TGTGTCAA	0.094
CAGGACGC	-0.23
CAAATATA	0.0799
CTTCTCCA	-0.0794
AGTTCCCA	0.0628
ACAGGTGA	0.0927
AGGGTCCG	-0.262
CATATCGG	0.00508
GTTTGAGA	-0.0917
CAGTACCG	-0.0765
TAAGCAAA	0.0998
GCAACGGA	0.118
ACTGGCCG	-0.273
AGGATGTA	0.0873
GAAAAATC	0.127
CTGTCTAC	0.03
GACGTTTA	-0.0849
AACTCACC	-0.0151
ACAATCTC	-0.0263
ATAGAAGC	0.104
CGTAGAAC	-0.195
GGCCCCCA	-0.482
CTACTAGC	0.097
ACGACCCC	-0.109
AACGGCAT	0.249
ACAACAGT	0.0285
CAGATGAC	-0.0623
GGGGGGTA	-0.393
AACAATTG	-0.0238
GACTTACC	-0.11
CTCAGCGC	-0.114
ACTCAAAC	0.0791
ATGAAGCC	0.0364
ACTGAGTC	-0.0122
GTGATATA	0.0989
CACCTAGC	-0.196
ATCTCCGA	0.0977
TCTTCACA	0.128

(list continues)

Sequence	PBM E-score
CGCACAAC	0.127
CAGCTGAA	-0.051
CCGAGTAG	0.0617
ATCCCGGG	-0.0376
GGCCGCGA	-0.214
AGGAATTG	0.207
ACGGAAAG	0.144
GACGCTAC	-0.0197
GATGCTGA	-0.159
AATGAATA	0.109
GTACCGCA	0.00409
CGGACGAG	-0.182
GCCTGTCC	-0.0695
CCAACACG	0.0734
TGTCACAA	0.133
CTTACCAA	0.212
CTATACCC	-0.078
ACTAACCT	0.111
CTTTACTC	0.203
CGGGGCTA	-0.274
AAGTCTTG	-0.07
GGGTTTTA	0.108
ACGCCCGG	-0.243
CTGCTCCC	-0.122
TCCTTAAA	0.00477

Sequence	PBM E-score
AGTACCCA	0.0173
CACCCTCA	-0.133
AAAAGCTA	0.0332
ATAAAGTA	0.286
CACGAGCA	-0.0731
AAACCTGG	0.0037
GATCAACA	-0.0544
CGTGAGAC	-0.00333
AATCTCGG	0.0476
TCCGCAGA	-0.0532
ATCCGCGC	-0.0738
CAGCCTCC	-0.321
ACTCGCAA	0.0289
ATGTTACG	0.0978
CATACATG	0.0348
GGGCGCGA	-0.154
CTCCAAGC	-0.00131
AGAGGAAG	-0.0758
GGCCTCAA	-0.0177
AGCCCCGG	-0.257
AAATCACG	0.158
CCCTCAGC	-0.209
CCCGCGGC	-0.0921
ATCCCTGG	-0.265
CGGGACTC	-0.217

Sequence	PBM E-score
CTTATTCA	0.106
TAATAAGA	0.136
ATTAAAAT	0.169
AGAAATAT	0.162
GACGTGGC	-0.217
CGGAGTAA	-0.0385
CGTCGAGA	0.042
AATAACTA	0.0853
GACGATCA	-0.0887
GTCATAAA	0.221
ACGTCGCG	-0.026
AAACACGC	0.189
GACCTCTA	-0.246
CAAGTAGG	-0.053
CAACTCCA	0.0135
AATTGGAT	0.168
GCTTTGGA	0.0763
AACATCGC	-0.141
AGGATAAT	0.186
ATGCAAGA	0.0402
GAAGTCTA	-0.109
ACCAGGCG	-0.133
TGTGCGAA	-0.0729
AACATCTT	-0.135
AGCATCGA	0.145

Sequence	PBM E-score
CCATTAAG	-0.141
AAAACATT	0.184
CGGTAGTC	-0.15
TCCCACAA	0.0374
GCAATGAC	-0.147
GAACTAAC	0.0778
CGTCGGGC	-0.331
CTTATCCC	-0.0627
AATACTCC	-0.0908
CAGTGCCC	-0.192
GGTCAGAC	-0.157
ATCCATCA	0.0452
CCTTTCCA	-0.0109
CGATAACC	0.133
GCCTCTAA	0.0367
CGGTTATA	0.0465
GAAGCGTA	0.102
GACCTTTA	0.0224
GCACGGGA	-0.139
CTGCCCGC	-0.054
ACTGAGGC	0.0378
AATCTATC	0.132
AACTGGAT	0.0502
GATGTCTA	-0.122
AATGGAAT	0.275

Sequence	PBM E-score
CCTTTACG	0.196
CTGAAGCC	-0.0791
ATAAAGTG	0.271
CCTAGGAA	0.0329
CAATGTGG	0.0977
ACTAGATA	0.154
ATAGTTTC	0.0469
CTGACTCA	0.193
CAGTACGC	-0.0471
GGCGAGAC	-0.0881
ATTTTGTC	0.121
GATCTGAA	-0.131
ACGCTAAA	0.0669
GGCCATCA	0.00743
ACCTTCAT	0.0296
AAGTTATT	0.174
CAGTCGAA	-0.0956
ACTTTTTA	0.217
TGCCCTAA	-0.0308
AAGATAAC	0.111
CGGTGTCC	-0.183
ACGTAGCT	-0.0319

Reference: the supplement of paper PMC3334620
